These results are taken from US4118483 (dated 1978).

This data set can be described thus: general procedure: solution-phase peptide synthesis; DCC/1-hydroxybenzotriazole; active esters (OTcp, OObt); azide fragment coupling. The conditions noted are these: late stage modification step, acetate.

For H-D-Gln(Bzl)-Leu-Arg-Pro-NH-C2H5, the difficulty met result is recorded as “The very impure material is purified by partition chromatography”.
